Experimental data reported in PubChem BioAssay AID1794844 (National Center for Advancing Translational Sciences (NCATS), 2023).
The campaign covered roughly 2,800 compounds. Fewer than 10 were called active. Roughly 7% stayed inconclusive and do not appear here. Calls come from the whole dose curve; as a rule, active = well fitted inhibition curve with a large enough effect; inconclusive = small, poorly fitted or top-dose-only effect; inactive = no such curve, though single readings can be large or run the other way. This is one part of the list.

Protein sequences, listed by entry. Tags and fused reporters are not part of them. Lines headed by an entry give the natural chain unless they say otherwise; changes in a name come on top.
UniProt C7C422: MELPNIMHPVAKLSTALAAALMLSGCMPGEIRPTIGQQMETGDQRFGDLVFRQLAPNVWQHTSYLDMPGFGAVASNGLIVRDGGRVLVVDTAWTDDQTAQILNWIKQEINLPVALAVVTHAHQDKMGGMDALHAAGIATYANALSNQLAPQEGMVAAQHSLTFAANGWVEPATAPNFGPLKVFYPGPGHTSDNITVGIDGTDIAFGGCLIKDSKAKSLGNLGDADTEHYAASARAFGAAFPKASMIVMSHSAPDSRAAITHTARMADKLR

molecular target: Metallo-beta-lactamase type 2 (Klebsiella pneumoniae) (UniProt C7C422); assay: qHTS to identify inhibitors of the New Delhi Metallo-beta-lactamase (NDM): Nitrocefin screen against the machine-based learning selections.; note: % of control where 0% means no effect; conditions: NDM-1 enzyme, nitrocefin hydrolysis, absorbance 485 nm; activity, negative = inhibition: at the top concentration
From the text: Assay Submitter (PI): James Inglese Ph.D., Patricia Dranchak Ph.D., Mahesh Aitha Ph.D. Assay Development and Screening Technology Laboratory (ADST) National Center for Advancing Translational Sciences (NCATS), Rockville, MD National Institute of Health (NIH), Bethesda, Maryland The metallo-beta-lactamases (MBL) are a main antibiotic resistance mechanism evolved by bacteria. There is an urgent clinical need for MBL inhibitors to mitigate this growing threat. To support a machine-based learning study, qHTS has been used to experimentally test inhibitors identified by prediction tools.
PROTOCOL TABLE (as described by Inglese et al., 2007) SEQUENCE No. (e.g., 1, 2, 3, etc.); […] (e.g., enzyme, Incubation, Reagent, etc.); VALUE; DESCRIPTION Primary Screen 1; NDM-1; 4 uL of 3 nM enzyme [2 nM final] in 50 mM HEPES (pH 7.0), 1 uM […], 0.01% Tween20; Use BioRaptr to dispense into two sets of Aurora black, clear bottom high base 1536-well plates 2; Compounds; 23 nL; Use Pin Tool (Wako) to transfer DMSO control and library compounds in DMSO 3; Incubate; >30 min 4a; Reagent; 2 uL of 50 uM nitrocefin [16.7 uM final] to one set of assay plates 4b; Reagent; 2 uL of 150 uM meropenem [50 uM final] to second set of assay plates 5a; Incubate; 15 min 5b; Incubate; 30 min 6a; Detector; Absorbance at 485 nm (bandwidth = 5 nm, 25 flashes/well) on Tecan Infinity 6b; Detector; Absorbance at 300 nm (bandwidth = 5 nm, 25 flashes/well) on Tecan Infinity NOTES (numbers refer to sequence above) 1; Column 1 of each plate received assay buffer without enzyme and columns 2-48 received enzyme for a final assay concentration of 2 nM. 2; Control plate contained DMSO in columns 1, 2, 3, and 4. 3; Compound interaction with enzyme. 4; Nitrocefin and meropenem substrates were prepared in the same assay buffer as step 1 for a final assay concentration of 16.7 uM and 50 uM, respectively, and added to all wells across respective sets of assay plates. 5; Default reader settings were applied for absorbance read at 485 nm (nitrocefin) or 300 nm (meropenem), bandwidth = 5 nm, 25 flashes/well. References: Inglese J, Shamu CE, Guy RK. 2007. Reporting data from high-throughput screening of small-molecule libraries. Nat Chem Biol. doi:10.1038/nchembio0807-438 Yasgar A, Shinn P, Jadhav A, Auld D, Michael S, Zheng W, Austin CP, Inglese J, Simeonov A. 2008. Compound Management for Quantitative High-Throughput Screening. J Lab Autom 13:79 - 89. doi:10.1016/j.jala.2007.12.004

activity, negative = inhibition, inactive:
Cc1ccc(-c2cn3c(n2)CO[C@@H](CNS(=O)(=O)c2cccs2)C3)cc1 0.483% [at 57.5 µM]
COc1ccc(C(=O)NCc2nnc3ccc(-c4ccc(F)cc4)nn23)cc1OC -5.09%
C=CCNC(=O)[C@@H]1Cc2cn(Cc3c(C)noc3C)c3cccc(c23)[C@H](CC(C)C)N1 2.11% [at 57.5 µM]
O=C(Cc1c[nH]c2ncc(-c3cccc(O)c3)cc12)N1CCOCC1 2.11% [at 57.5 µM]
Cc1nc2ccc(C(=O)NCc3cc4n(n3)CCN(C(=O)N(C)C)C4)cc2o1 -2.48%
CCOC(=O)N1CCN(C(=O)C(c2ccccc2C)N(C)C)CC1 (configuration not stated) 0.82%
CC(C)(C)c1ccc(NC(=O)O[C@@H]2CO[C@H]3[C@@H]2OC[C@@H]3Nc2nccc(-c3ccccc3)n2)cc1 1.81%
COc1cc2c(cc1CN1C[C@@H]3CC[C@H](C1)N(CC1CCC1)C3=O)OCCO2 -0.667%
CCOCCn1c(=O)[nH]c2cc(C(=O)NCc3cc(=O)[nH]c(C)n3)ccc21 -3.04%
CC1=C[C@@H](CNCc2ccc(C#N)cc2)[C@H](C(C)C)C[C@H]1Cc1nnc(-c2cccnc2)o1 -0.0925%
CN1C(=O)CO[C@H](c2ccc(NC(=O)c3ccc(-c4ccccc4)cc3)cc2)[C@H]1CO -9.65% [at 57.5 µM]
O=C(N[C@H]1CO[C@H]2[C@@H]1OC[C@@H]2n1nnnc1-c1ccc2c(c1)OCO2)c1ccc(C(F)(F)F)cc1 14.8%
COc1ccc(CN2CCOC[C@H](OC)C2)cn1 1.51% [at 76.7 µM]
Cc1ccsc1-c1[nH]nc2ncc(-c3cccc(O)c3)nc12 9.44% [at 57.5 µM]
FC(F)(F)Oc1ccc(-c2cnc([C@@H]3COCCN3Cc3ccncc3)[nH]2)cc1 -1.63% [at 57.5 µM]
N[C@@H](Cc1cnc[nH]1)C(=O)N1CCC2(CC1)CN(CCOc1ccccc1)C(=O)O2 23.4%
CC1(CNCc2ccccc2)COc2ccc(C(=O)Nc3cccnc3)cc2N1 (configuration not stated) 0.768% [at 57.5 µM]
Fc1cccc(Nc2cnc3ccc(-c4ccccc4)nn23)c1 -15.4% [at 57.5 µM]
C=CCNC(=O)[C@@H]1Cc2cn(Cc3ccncc3)c3cccc(c23)[C@H](CC(C)C)N1 -1.56% [at 57.5 µM]
CN1CCC(NC(=O)Cc2c[nH]c3ncc(-c4ccccc4)cc23)CC1 19.2% [at 57.5 µM]
O=C(Cc1c[nH]c2ncc(-c3ccncc3)cc12)NCc1cccnc1 7.18% [at 57.5 µM]
CC(C)CCCC1CN(C(=O)c2c(O)cccc2O)CCO1 (configuration not stated) -3.01%
O=C(NC1CCCCC1)O[C@@H]1CO[C@H]2[C@@H]1OC[C@@H]2NS(=O)(=O)c1ccc(Cl)cc1 1.63%
OC1(c2csc(CN3CCOCC3)n2)CCN(CC2CCCCC2)CC1 2.57% [at 57.5 µM]
Cc1nc2c(c(-c3ccc(Cl)cc3)n1)CCN(C(=O)C1CC1)CC2 -14.4%
Cc1cc(-c2ccccc2)nc(CN2CC[C@@](O)(C3CCC3)[C@H](C)C2)n1 -7.57%
O=C(Nc1ccc(-c2nnc3n2CCCC3)cc1)C1CC1 0.555%
CCC(C)NC(=O)CC1Sc2ncccc2N(C)C1=O (configuration not stated) -4.27%
COc1ccccc1C(=O)Nc1ccnn1C1CCN(C(=O)[C@@H](N)CO)CC1 0.0925%
CC(C)(C)c1ccc(C(=O)Nc2ccc(C(O)[C@H]3COCC(=O)N3)cc2)cc1 (some centres not stated) -5.31% [at 57.5 µM]
OC(c1ccccc1)c1nc(Nc2ccc(C(F)(F)F)cc2)n[nH]1 (configuration not stated) 7.39% [at 57.5 µM]
c1ccc(OCCNc2nc(-c3cccnc3)nc3c2CCNCC3)cc1 -10.6%
CCN(Cc1ccc(C)o1)C(=O)c1ccc2nc(-c3ccc(F)cc3)cn2c1 -1%
COC(=O)N1CCCCC(NC(=O)CCCc2nc(-c3ccccc3C)no2)C1 (configuration not stated) -1.3%
CCNC(=O)N[C@H]1[C@H](O)[C@@H](N(C)CCN(C)C)[C@@H]2OC[C@H]1O2 12.1% [at 57.5 µM]
O=C(O)C[C@@H]1CCN(C(=O)c2ccco2)C[C@@H]1CCN1CCOCC1 -16.5% [at 57.5 µM]
COc1ccc(CN2C(=O)CO[C@H](c3ccc(NC(=O)c4ccccc4OC)cc3)[C@H]2CO)cc1 2%
CCS(=O)(=O)c1ccc2oc([C@H]3CCN(Cc4c[nH]c5ccccc45)C3)nc2c1 -5.57% [at 57.5 µM]
NC(=O)[C@H](Cc1cccs1)NC(=O)C1=C[C@@H](NC(=O)c2ccc(F)c(Cl)c2)[C@@H](O)[C@H](O)C1 315%
COC(=O)c1[nH]nc2c1C(c1ccc(OC)c(OC)c1Cl)CC(=O)N2 (configuration not stated) -12%
N#Cc1cccc(-c2ccnc(N[C@H]3CO[C@H]4[C@@H]3OC[C@@H]4NC(=O)c3ccc(C(F)(F)F)cc3)n2)c1 -4.01%
Clc1cccnc1-c1cc(NCc2ccccn2)nc2[nH]ccc12 -5.52%
Cc1ccccc1-c1nccn2c(C3CN(Cc4ccc(O)cc4)C3)ncc12 -5% [at 57.5 µM]
COc1ccc(NC(=O)c2ccnc(-c3nnc4ccc(Nc5ccccc5)nn34)c2)cn1 -8.9% [at 57.5 µM]
O=C(O)c1cc(-c2ccc3cc[nH]c3c2)cc(S(=O)(=O)N2CCSCC2)c1 24.7%
Cc1ccc(S(=O)(=O)Nc2ccc(C)n(CC(=O)NC(C)c3ccccc3)c2=O)cc1 (configuration not stated) -14.1%
CC(C)NC(=O)N1CCOc2ccc(CCC(N)=O)cc2C1 0.491%
Clc1ccc(Cn2ccnc2-c2cc3n(n2)CCCNC3)cc1Cl -18.2%
O=C(Nc1cccc(-c2nnc3n2CCCC3)c1)c1ccc[nH]c1=O 0.765%
CC(C)C[C@@H]1N[C@H](C(=O)N(C)CCC#N)Cc2c[nH]c3cccc1c23 -7.79% [at 57.5 µM]
CC[C@H]1CN(C(=O)NC2CCCCC2)CC[C@H]1CC(=O)Nc1ccccc1 -11.1% [at 57.5 µM]
Cc1ccnn1CCC(=O)Nc1nn(C)c2cccc(N3CCOCC3)c12 22.6%
O=C(NCc1nnnn1-c1ccccc1)C1NCCc2[nH]cnc21 (configuration not stated) -14.2%
O=C(c1cccc(F)c1)N1CCCC2(C1)NC(=O)N(Cc1ccc(Cl)cc1)C2=O (configuration not stated) -0.85%
COCc1ccc(C(=O)N2CC[C@](C)(O)[C@H](C)C2)s1 -4.35%
CCS(=O)(=O)N1CCOC[C@H](Oc2ccc(C(F)(F)F)cn2)C1 -7.76% [at 57.5 µM]
CN(C)c1cccc(-c2cnc3[nH]cc(CC(=O)NCc4cccnc4)c3c2)c1 1.44% [at 57.5 µM]
c1ccc(CNc2cc3c(cn2)CN(Cc2cccnc2)CCN3)cc1 -2.53% [at 57.5 µM]
C[C@@]1(O)CCN(C(=O)CN)C[C@@H]1Cc1ccccc1 15.7%
COCCCNC(=O)C1CC(=O)N(c2n[nH]c3cccc(F)c23)C1 (configuration not stated) -7.72%
CC(=O)Nc1ccc(CN[C@@H]2CO[C@H](CNS(C)(=O)=O)[C@H]2O)cc1 -1.54% [at 57.5 µM]
Clc1cc(NC2CCOCC2)n2nccc2n1 -3.87% [at 57.5 µM]
COc1ccc(CC(=O)N2CC[C@@H](CC(=O)O)[C@@H](CCN(CCN3CCOCC3)c3ccccc3)C2)cc1 -5.13%
O=C(NCCc1ccc(Cl)cc1)c1nc(-c2ccc(F)cc2)c2ccccn12 -2.34%
O=C(N[C@H]1CCN2C(=O)c3ccccc3NC(=O)[C@@H]2C1)C1CCCC1 2.7% [at 57.5 µM]
Oc1cccc(CN2CCCC23CCN(c2ccc(C(F)(F)F)cn2)CC3)c1 0.937%
COc1ccc(-c2cccc(CCOc3cnc4c(ccn4CC(=O)O)c3)c2)c(C)c1 -9.94% [at 57.5 µM]
Cc1ccc2c(c1)nc1n2[C@@H](CNC(=O)c2cccnc2)COC1 -0.374% [at 57.5 µM]
O=C(c1csc(Cc2ccccc2)n1)N1CC[C@H](CO)[C@@H](O)C1 9.2%
CN1C[C@H](NCc2cccc(Cl)c2)CCC[C@@H](C(=O)N(C)Cc2cccnc2)CC1=O 2.8%
OC[C@@H]1CN(c2ccc(-c3nc(-c4cccc(C(F)(F)F)c4)no3)cn2)C[C@H]1CO 1.57%
COC(=O)[C@@H]1Cc2c([nH]c3ccccc23)[C@H]2C[C@@H](NCCN(C)C)C[C@@H](c3cccc(Cl)c3)N21 7.23%
COc1ccccc1-c1ccc2ncc(Nc3ccc(CCO)cc3)n2n1 -10.8% [at 57.5 µM]
Cn1cc(CNCC2(COc3cccnc3)C[C@@H](O)[C@@H](O)C2)c2ccccc21 (some centres not stated) -11.4%
O=c1c2nc(-c3cccc(O)c3)ccc2ncn1C1CC1 3.47% [at 76.7 µM]
COc1ccccc1-c1nnc([C@H]2CCN(Cc3ccccc3O)C2)o1 16% [at 57.5 µM]
O=C(NCC1CCOCC1)Nc1cc(F)c(F)c(F)c1 -0.284%
Cc1noc(C)c1[S+](=O)([O-])N1CCC2(CC1)CC(=O)c1ccccc1O2 484%
O=C(Cc1c[nH]c2ncc(-c3ccccc3)cc12)NCCN1CCOCC1 -4.78% [at 57.5 µM]
O=C(NCc1cccnc1)c1nc(-c2ccccc2)cc2[nH]ccc12 1.33% [at 57.5 µM]
C[C@H](O)c1onc(-c2ccc(Cl)cc2)c1C(=O)NC1CCC1 4.84% [at 57.5 µM]
Cc1noc([C@@H](C)NS(=O)(=O)c2ccc(Cl)cc2)c1C(=O)O 4.87% [at 57.5 µM]
CNc1ccc(-c2noc([C@@H]3CCCN3Cc3cccc(OC)c3)n2)cn1 -1.02% [at 57.5 µM]
O=C(c1ccc2[nH]ccc2c1)N1CCC2(CC1)N=C(c1ccc(Br)cc1)NO2 10.7%
Cc1ccc(C(=O)N2CC3CC(C2)[C@H]2CCCC(=O)N2C3)s1 (some centres not stated) -6.66%
Nc1nc(CCC(=O)N2CC[C@@H](NC(=O)c3cccnc3)[C@H](O)C2)cs1 2.8%
CC(=O)N1CCCN(C(=O)[C@@H]2Cc3cn(C)c4cccc(c34)[C@H](CC(C)C)N2)CC1 0.764% [at 57.5 µM]
O=C1Cc2c(-c3cccc(CO)c3)n[nH]c2CN1c1ccccc1 -4.56% [at 57.5 µM]
COc1ccc(CC(=O)N2CCC(N3CC4CC(C3)[C@H]3CCCC(=O)N3C4)CC2)cc1 (some centres not stated) -4.99%
COCCn1c(CO)nnc1C1CC(NC(=O)c2ccc(F)cc2F)C1 (configuration not stated) 344%
COCCN1C(=O)[C@@H]2C[C@@H](CN2Cc2ccc(OC)nc2)Oc2ccccc21 -2.4% [at 57.5 µM]
COc1cccc2c1OCC(C(=O)N1CC(Oc3ccccc3C)C1)C2 (configuration not stated) -2.13%
Cn1ccc2c(C(=O)NCCc3cnc[nH]3)nc(-c3ccc([S+](C)(=O)[O-])cc3)cc21 -9.99% [at 57.5 µM]
OC[C@H]1C[C@@H](NCc2cccc3c2OCO3)[C@H](O)[C@@H]1O -16.7% [at 76.7 µM]
COc1cccc(CN2CCOC[C@H](Oc3cccnc3)C2)c1 1.9% [at 57.5 µM]
O=c1c2nc(-c3ccc(O)c(F)c3)ccc2ncn1-c1ccc(F)cc1F 0.349% [at 57.5 µM]
CO[C@H]1[C@H](NC(=O)COc2ccccc2)c2ccccc2C12CCNCC2 -11.8%

Of the compounds above, 2 have a furan ring, fused or not:
activity, negative = inhibition, inactive:
CCN(Cc1ccc(C)o1)C(=O)c1ccc2nc(-c3ccc(F)cc3)cn2c1 -1%
O=C(O)C[C@@H]1CCN(C(=O)c2ccco2)C[C@@H]1CCN1CCOCC1 -16.5% [at 57.5 µM]
